# Test results as given in article PMC5996148.
# Amino acid sequences for entries named in this document (tags omitted). A change or cut given only in a name is not applied to a line headed by its entry.
# UniProt Q8NEY1: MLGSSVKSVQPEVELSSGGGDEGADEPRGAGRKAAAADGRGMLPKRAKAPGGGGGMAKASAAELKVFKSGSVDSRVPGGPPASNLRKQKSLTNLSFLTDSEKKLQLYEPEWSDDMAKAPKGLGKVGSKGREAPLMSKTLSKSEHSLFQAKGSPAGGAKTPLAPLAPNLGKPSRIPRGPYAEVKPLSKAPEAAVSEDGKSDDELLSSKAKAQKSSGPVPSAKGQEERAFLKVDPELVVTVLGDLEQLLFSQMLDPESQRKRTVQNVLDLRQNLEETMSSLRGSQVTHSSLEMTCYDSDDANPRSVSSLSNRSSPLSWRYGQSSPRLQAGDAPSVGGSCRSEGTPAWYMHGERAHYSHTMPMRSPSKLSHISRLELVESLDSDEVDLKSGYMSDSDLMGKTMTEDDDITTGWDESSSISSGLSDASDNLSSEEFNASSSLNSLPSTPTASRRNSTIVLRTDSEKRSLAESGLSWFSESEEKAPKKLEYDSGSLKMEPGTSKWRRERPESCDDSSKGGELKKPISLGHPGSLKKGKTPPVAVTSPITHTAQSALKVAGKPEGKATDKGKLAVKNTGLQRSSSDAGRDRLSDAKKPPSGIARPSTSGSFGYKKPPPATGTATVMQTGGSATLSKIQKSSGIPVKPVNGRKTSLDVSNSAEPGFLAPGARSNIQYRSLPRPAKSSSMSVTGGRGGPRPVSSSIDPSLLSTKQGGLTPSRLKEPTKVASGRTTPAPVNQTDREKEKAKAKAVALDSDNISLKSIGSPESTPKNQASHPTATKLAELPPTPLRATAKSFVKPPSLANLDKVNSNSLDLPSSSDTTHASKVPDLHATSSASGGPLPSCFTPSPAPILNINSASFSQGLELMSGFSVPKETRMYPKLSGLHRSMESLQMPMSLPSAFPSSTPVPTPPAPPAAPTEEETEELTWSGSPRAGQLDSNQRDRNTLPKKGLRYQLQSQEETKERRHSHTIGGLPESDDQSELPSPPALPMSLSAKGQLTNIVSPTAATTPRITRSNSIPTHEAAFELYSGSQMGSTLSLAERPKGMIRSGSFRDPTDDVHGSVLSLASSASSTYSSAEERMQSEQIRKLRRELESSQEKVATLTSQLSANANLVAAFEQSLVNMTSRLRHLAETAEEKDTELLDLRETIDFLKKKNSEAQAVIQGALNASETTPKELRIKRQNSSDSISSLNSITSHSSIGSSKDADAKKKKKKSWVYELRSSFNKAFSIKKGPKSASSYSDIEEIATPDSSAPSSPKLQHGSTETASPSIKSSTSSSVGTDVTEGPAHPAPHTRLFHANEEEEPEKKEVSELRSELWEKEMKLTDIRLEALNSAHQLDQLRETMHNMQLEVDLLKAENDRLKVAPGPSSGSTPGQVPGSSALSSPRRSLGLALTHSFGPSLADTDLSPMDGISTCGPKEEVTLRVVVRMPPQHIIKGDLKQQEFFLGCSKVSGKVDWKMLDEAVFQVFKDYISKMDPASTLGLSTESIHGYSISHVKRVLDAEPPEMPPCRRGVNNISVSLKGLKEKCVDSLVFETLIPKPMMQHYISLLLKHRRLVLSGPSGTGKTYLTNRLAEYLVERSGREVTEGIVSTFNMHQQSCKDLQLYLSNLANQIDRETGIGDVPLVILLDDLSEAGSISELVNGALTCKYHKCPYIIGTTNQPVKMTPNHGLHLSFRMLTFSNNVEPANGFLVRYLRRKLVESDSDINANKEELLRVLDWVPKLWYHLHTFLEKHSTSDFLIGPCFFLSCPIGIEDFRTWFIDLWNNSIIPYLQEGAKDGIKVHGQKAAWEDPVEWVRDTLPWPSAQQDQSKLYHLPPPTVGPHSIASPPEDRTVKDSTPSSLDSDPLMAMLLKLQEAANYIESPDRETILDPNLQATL
# This is one part of the list. For some of these results: The source does not settle which construct or isoform was used.
# Assays:
# Experiment in all cases: protein microarray (ProtoArray v5.0), streptavidin-Alexa Fluor 647
# Conditions in all cases: 3'-biotin; 20 mM Tris (pH 7.5), 5 mM MgCl2, 100 mM KCl, 0.1% Tween-20, A/T-rich and random oligonucleotide blockers; temperature not stated; high values mean tight binding
# [1] = system: Myosin light chain 2, lymphocyte-specific (human)
# [2] = system: Myosin light chain kinase, smooth muscle (human)
# [3] = system: NA (human)
# [4] = system: NAGK (human)
# [5] = system: NAPG (human)
# [6] = system: NAPRT1 (human)
# [7] = system: NASP (human)
# [8] = biological target: NAV1 (UniProt Q8NEY1)
# [9] = system: NBPF1 (human)
# [10] = system: NBPF22P (human)
sequence,measurement,setting,value
GGTGACAGGGGTATGGGGAGGGG [G4-2 biotinylated (Ct1)],binding signal,[1],-0.383 z-score
same,binding signal,[2],-0.398 z-score
same,binding signal,[3],5.69 z-score
same,binding signal,[4],-0.389 z-score
same,binding signal,[5],-0.387 z-score
same,binding signal,[6],-0.389 z-score
same,binding signal,[7],-0.39 z-score
same,binding signal,[8],-0.394 z-score
same,binding signal,[9],-0.389 z-score
same,binding signal,[10],-0.4 z-score

# An excerpt of these results, tab-delimited:
sequence	measurement	setting	value
GGTGACAGGGGTATGGGGAGGGG [G4-2 biotinylated (Ct1)]	binding signal	[1]	-0.383 z-score
same	binding signal	[4]	-0.389 z-score
